This is an account of results in article doi:10.1101/2024.11.20.624400.

For experiment [1], the target named is T1, EDS1^405-554, fragment of the EDS1 EP domain, in pDEST-GBKT7 (BD) (A. thaliana) (UniProt Q9SU72).
T1 sequence: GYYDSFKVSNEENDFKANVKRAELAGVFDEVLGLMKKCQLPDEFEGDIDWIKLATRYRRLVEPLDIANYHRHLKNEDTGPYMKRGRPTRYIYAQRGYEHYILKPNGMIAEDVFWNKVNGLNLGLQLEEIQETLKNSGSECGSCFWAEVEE
As to the kind of experiment: two-hybrid.

In experiment [2] the target is T2, HA-EDS1 made in Sf9 cells (full-length A. thaliana EDS1, pFastBac HTB) (A. thaliana) (UniProt Q9SU72).
T2 sequence: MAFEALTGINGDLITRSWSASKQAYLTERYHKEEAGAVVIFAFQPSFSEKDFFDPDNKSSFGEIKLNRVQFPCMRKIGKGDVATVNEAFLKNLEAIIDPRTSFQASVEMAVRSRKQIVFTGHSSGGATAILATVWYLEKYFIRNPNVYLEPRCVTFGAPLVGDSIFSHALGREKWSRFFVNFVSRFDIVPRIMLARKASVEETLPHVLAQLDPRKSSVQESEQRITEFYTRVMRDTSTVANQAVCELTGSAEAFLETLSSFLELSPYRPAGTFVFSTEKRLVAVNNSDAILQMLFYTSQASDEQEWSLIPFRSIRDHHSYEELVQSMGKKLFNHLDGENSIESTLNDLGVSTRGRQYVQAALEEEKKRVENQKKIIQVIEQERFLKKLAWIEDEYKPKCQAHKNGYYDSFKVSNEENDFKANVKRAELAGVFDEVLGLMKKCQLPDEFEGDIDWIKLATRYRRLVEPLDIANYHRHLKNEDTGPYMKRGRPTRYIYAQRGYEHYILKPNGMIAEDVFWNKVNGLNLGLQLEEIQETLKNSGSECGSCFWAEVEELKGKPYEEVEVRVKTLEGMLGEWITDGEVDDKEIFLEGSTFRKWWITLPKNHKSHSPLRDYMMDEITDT
As to the kind of experiment: co-IP.

No constants are given. Whether binding was seen depends on the method and setting. A result given as binding can be weak or reduced; the word gives no strength. Sequences can lack the tags named with a protein. For some assays here: In cells and extracts the contact can be indirect.

As for “M. persicae CathB6 catalytic domain in pDEST-GADT7 (AD) (Myzus persicae) (domain or fragment)”, in experiment [1], the binding result is given as “binds”. As to “CathB6-GFP made in Sf9 cells (CathB6 catalytic domain Arg61-Asn338, pFastBac HTB) (Myzus persicae) (domain or fragment)”, the binding entry in experiment [2] is reported as “binds”.
